# Assay results from the supplement of paper PMC10849652.
# Protein sequences, listed by entry. Tags and fused reporters are not part of them. Lines headed by an entry give the natural chain unless they say otherwise; changes in a name come on top.
# UniProt Q96Q83: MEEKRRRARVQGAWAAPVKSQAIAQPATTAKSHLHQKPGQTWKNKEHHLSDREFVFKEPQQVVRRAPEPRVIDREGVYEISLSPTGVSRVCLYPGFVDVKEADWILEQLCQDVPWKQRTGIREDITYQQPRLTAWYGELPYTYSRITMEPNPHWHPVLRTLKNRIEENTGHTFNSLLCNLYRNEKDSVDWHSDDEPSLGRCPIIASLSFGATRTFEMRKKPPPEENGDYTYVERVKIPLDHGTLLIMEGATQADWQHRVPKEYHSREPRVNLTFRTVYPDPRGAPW
# UniProt Q96F25: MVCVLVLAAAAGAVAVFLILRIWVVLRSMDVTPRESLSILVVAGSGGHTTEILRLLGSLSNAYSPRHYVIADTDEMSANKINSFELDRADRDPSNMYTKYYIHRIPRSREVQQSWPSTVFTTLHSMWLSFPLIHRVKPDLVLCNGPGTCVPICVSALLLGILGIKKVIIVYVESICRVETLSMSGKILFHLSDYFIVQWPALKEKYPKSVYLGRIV
# UniProt P04075: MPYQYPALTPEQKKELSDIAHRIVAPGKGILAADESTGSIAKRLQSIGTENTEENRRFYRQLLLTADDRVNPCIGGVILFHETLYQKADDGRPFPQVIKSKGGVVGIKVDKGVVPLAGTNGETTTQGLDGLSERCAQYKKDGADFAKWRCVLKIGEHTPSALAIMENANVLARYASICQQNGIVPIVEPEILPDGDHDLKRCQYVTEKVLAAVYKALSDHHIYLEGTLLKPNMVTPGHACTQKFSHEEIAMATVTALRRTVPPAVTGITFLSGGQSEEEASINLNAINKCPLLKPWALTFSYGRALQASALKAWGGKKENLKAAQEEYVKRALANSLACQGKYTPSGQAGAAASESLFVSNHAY
# UniProt Q3SY69: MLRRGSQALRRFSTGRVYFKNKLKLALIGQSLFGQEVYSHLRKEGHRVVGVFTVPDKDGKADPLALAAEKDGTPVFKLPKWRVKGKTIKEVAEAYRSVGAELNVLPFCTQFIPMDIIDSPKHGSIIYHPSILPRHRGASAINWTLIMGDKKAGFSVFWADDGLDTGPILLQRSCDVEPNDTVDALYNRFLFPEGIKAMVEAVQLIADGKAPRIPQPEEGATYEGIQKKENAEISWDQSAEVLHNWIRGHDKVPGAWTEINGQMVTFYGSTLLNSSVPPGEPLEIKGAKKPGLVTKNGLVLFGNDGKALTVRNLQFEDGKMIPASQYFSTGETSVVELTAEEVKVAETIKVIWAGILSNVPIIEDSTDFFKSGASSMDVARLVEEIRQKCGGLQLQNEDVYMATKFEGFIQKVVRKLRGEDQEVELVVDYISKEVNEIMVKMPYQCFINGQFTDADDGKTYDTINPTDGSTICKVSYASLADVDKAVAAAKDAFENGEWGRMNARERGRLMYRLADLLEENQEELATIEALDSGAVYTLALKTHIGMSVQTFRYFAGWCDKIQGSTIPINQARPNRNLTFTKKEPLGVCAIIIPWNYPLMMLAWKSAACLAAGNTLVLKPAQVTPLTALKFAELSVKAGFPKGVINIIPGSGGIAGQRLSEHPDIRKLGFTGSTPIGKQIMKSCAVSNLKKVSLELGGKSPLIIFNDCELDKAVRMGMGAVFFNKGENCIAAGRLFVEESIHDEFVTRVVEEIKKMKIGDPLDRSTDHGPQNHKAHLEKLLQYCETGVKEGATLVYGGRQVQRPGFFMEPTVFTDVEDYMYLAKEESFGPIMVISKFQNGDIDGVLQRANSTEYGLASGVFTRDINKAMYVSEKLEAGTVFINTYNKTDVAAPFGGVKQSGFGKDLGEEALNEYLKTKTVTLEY
# UniProt Q9UIJ7: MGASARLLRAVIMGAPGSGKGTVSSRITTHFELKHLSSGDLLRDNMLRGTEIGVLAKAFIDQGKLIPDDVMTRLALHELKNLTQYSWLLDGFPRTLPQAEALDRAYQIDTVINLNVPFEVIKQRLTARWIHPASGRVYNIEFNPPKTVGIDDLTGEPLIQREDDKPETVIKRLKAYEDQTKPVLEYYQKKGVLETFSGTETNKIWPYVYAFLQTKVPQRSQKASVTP
# UniProt P09972: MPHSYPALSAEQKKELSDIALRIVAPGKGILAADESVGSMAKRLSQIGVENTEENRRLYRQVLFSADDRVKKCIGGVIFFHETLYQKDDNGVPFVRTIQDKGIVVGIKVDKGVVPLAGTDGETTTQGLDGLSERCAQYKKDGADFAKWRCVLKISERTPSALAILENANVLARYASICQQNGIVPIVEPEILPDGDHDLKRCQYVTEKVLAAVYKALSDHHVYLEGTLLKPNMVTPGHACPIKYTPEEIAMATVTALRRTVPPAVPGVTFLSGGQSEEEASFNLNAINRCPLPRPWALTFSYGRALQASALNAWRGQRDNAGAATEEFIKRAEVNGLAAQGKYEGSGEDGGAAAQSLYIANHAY
# UniProt Q9BT22: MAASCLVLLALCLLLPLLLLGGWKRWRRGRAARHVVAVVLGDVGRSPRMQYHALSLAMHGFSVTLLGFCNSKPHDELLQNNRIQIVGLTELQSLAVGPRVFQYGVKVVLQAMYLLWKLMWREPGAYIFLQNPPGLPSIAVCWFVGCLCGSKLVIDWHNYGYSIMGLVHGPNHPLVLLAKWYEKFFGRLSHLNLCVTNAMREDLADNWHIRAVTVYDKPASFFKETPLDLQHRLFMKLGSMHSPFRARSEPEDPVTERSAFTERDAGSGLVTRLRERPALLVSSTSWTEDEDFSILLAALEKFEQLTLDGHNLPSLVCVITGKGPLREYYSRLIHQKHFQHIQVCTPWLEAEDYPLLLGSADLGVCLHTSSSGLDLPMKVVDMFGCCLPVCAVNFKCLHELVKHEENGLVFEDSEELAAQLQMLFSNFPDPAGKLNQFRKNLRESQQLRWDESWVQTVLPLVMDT
# UniProt P11766: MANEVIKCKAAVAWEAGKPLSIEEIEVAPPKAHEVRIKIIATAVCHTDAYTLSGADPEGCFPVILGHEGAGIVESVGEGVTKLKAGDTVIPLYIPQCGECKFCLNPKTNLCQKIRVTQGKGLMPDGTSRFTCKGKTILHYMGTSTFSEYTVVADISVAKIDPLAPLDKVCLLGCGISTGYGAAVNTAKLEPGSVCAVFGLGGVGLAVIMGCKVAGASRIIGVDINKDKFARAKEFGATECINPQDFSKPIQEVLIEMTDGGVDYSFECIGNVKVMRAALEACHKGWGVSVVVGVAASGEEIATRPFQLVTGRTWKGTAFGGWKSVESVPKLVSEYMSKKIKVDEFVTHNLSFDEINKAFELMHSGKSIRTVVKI
# UniProt O00170: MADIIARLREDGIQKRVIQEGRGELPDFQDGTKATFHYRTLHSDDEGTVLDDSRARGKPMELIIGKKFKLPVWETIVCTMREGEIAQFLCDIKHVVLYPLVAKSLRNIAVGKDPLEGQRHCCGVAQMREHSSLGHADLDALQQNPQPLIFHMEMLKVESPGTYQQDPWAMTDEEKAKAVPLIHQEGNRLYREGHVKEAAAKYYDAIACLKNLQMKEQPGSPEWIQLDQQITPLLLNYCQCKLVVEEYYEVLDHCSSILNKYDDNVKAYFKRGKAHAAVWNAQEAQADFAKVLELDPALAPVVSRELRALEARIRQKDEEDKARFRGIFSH
# UniProt Q9NRZ7: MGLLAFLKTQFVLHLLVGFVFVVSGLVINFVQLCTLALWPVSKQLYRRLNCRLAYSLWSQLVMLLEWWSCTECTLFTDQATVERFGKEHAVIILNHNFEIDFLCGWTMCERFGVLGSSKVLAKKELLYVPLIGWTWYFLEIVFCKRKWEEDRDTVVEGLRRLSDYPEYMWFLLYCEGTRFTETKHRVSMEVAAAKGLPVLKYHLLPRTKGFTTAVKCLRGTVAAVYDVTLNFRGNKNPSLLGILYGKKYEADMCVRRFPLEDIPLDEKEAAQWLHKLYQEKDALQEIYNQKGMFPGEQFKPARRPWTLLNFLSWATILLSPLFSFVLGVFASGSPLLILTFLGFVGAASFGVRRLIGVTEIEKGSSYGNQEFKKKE
# UniProt P42330: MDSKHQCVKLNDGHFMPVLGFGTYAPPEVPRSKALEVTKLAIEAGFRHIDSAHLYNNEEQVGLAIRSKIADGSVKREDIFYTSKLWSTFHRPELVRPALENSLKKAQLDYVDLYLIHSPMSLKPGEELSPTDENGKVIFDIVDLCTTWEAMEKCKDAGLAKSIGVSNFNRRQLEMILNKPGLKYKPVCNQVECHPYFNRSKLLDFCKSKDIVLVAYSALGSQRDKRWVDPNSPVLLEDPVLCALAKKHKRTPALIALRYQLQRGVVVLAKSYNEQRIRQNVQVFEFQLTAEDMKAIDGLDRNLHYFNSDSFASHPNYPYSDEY
# UniProt P23526: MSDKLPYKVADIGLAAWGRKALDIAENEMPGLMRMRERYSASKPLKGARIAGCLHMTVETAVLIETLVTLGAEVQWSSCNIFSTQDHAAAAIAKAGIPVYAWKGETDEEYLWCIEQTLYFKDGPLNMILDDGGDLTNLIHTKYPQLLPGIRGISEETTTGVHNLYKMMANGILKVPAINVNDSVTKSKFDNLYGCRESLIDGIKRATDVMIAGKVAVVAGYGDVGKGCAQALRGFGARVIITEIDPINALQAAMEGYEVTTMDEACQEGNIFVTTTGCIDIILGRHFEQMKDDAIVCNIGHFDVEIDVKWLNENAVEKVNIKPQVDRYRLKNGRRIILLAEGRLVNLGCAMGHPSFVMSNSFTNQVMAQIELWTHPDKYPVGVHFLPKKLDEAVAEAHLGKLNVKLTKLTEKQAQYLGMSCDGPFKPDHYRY
# UniProt Q9BV57: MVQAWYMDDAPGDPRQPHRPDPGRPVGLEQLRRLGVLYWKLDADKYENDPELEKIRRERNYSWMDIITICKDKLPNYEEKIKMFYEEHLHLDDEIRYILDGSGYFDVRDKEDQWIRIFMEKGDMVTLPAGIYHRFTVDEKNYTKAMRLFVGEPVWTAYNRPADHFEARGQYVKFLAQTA
# UniProt O43488: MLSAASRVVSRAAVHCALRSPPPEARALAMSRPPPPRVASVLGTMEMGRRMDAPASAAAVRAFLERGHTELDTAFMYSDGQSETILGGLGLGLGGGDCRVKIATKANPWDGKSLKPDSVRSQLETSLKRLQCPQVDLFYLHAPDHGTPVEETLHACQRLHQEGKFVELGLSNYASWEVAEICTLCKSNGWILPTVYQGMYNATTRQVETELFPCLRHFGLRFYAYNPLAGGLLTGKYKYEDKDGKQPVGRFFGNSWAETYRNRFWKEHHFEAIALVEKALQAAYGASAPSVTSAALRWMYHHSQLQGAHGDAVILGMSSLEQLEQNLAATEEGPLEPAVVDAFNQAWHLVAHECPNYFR
# UniProt O95831, whole entry, looked up: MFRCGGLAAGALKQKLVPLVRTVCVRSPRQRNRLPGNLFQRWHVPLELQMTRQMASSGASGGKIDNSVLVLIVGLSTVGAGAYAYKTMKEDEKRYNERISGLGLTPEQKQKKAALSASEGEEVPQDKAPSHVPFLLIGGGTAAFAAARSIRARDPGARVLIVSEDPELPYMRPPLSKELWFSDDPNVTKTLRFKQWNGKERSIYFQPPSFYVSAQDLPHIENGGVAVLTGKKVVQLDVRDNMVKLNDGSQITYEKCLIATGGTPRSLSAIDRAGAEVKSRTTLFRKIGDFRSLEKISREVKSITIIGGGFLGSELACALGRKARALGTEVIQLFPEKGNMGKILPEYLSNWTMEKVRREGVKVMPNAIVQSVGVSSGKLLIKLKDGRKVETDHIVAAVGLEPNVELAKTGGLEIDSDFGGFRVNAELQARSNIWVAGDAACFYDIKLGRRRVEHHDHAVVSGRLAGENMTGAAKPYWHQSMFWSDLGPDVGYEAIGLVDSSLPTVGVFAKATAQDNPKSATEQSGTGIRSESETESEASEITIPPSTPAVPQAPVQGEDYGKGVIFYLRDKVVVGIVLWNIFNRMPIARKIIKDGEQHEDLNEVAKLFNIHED
# UniProt P27144: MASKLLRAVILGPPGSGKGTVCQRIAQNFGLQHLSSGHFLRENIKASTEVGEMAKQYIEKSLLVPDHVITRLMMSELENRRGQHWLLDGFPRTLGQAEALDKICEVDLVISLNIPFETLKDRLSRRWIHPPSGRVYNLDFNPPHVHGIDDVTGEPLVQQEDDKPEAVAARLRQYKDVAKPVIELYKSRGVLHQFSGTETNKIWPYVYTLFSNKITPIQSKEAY
# UniProt P49189: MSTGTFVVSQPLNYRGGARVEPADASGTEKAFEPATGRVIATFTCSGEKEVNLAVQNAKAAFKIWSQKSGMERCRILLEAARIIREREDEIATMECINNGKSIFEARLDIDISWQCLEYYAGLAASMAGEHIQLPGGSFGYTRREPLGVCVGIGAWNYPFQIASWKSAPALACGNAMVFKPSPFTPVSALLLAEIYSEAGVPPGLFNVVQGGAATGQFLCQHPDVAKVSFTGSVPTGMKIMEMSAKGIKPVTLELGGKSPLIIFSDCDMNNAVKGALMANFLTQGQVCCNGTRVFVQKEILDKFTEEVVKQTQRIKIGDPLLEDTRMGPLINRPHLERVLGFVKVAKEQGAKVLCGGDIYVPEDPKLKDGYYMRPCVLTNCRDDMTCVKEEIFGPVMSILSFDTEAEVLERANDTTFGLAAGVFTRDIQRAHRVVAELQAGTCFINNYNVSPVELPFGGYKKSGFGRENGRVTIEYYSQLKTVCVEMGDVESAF
# The other results are listed elsewhere or left out.
# Key:
# Assay in all cases: log2 fold change, soluble protein after heating vs DMSO (PISA); higher = thermal stabilisation; K562 cells, 10 uM, 30 min; active = over 0.2 and 3.5 SD of the protein, either way, in both replicates (recomputed)
# erlotinib = compound: C#Cc1cccc(Nc2ncnc3cc(OCCOC)c(OCCOC)cc23)c1 [erlotinib]
# Method in brief: (§1)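 For each measurement, 10 μM compound was applied for 30 min to K562 cells at 2×10^6 cells/mL. Aliquots were heated for 3 min across 48°C-58°C, pooled, and extracted in PBS with 0.5% NP-40 at 4°C; the supernatant after 21,000xg for 90 min was soluble protein. This was quantified by TMTpro 16plex LC-MS/MS with channel sums equalised, and thermal stability was reported relative to control samples from duplicates, on a log2 fold-change scale.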
# [1] = compound: C/C(=N\NC(=O)C1=CC(=CC=C1)S(=O)(=O)N2CCOCC2)/C3=C(C=CC(=C3)Cl)O
# Method in brief: as §1
# [2] = compound: C1=CC(=C(C=C1Cl)C2=NC3=NC=CN=C3C(=N2)NC4=CC=NC=C4)F
# Method in brief: as §1
# [3] = compound: C1=CC(=CC=C1C2=NC3=C(N2)C=C(C=C3)C(=O)N)OC4=CC=C(C=C4)Cl
# Method in brief: as §1
# [4] = compound: C1=CC2=C(C=CC(=C2)/C=C\3/C(=O)NC(=NCC4=CC=CS4)S3)N=C1
# Method in brief: as §1
# [5] = compound: C1=CC2=NC=CN=C2C=C1/C=C/3\C(=O)NC(=O)S3
# Method in brief: as §1
# [6] = compound: C1=CC=C(C=C1)C2=NC(=C(N2)C3=CC=NC=C3)C4=CC(=C(C=C4)Cl)O
# Method in brief: as §1
# [7] = compound: C1=CC=C2C(=C1)C3=NNC4=CC=CC(=C43)C2=O
# Method in brief: as §1
# [8] = compound: C1CCN(C1)C(=O)NC2=CC=CC(=C2)NC3=NC=C(C(=N3)NCCC4=CN=CN4)Br
# Method in brief: as §1
# [9] = compound: C1CN(CCC1(CC2=CC=C(C=C2)Cl)N)C3=NC=NC4=C3C=CN4
# Method in brief: as §1
Target,log2 fold change (erlotinib),log2 fold change [1],log2 fold change [2],log2 fold change [3],log2 fold change [4],log2 fold change [5],log2 fold change [6],log2 fold change [7],log2 fold change [8],log2 fold change [9]
AGPS (UniProt O00116),inactive: 0.046,inactive: 0.055,inactive: 0.092,active: 0.256,inactive: 0.055,inactive: 0.031,inactive: 0.175,inactive: 0.043,inactive: -0.01,inactive: 0.077
ALKBH3 (UniProt Q96Q83),inactive: 0.011,inactive: -0.086,inactive: 0.016,inactive: 0.082,inactive: 0.007,inactive: -0.057,inactive: -0.056,inactive: 0.052,inactive: -0.04,inactive: 0.01
AKAP12 (UniProt Q02952),inactive: 0.042,inactive: 0.051,inactive: 0.059,inactive: -0.047,inactive: 0.07,inactive: -0.124,inactive: -0.122,inactive: 0.108,inactive: -0.057,inactive: 0.046
AK2 isoform 2 (UniProt P54819),inactive: 0.019,inactive: -0.035,inactive: 0.023,inactive: 0.003,inactive: -0.007,inactive: 0.019,inactive: -0.045,inactive: 0.015,inactive: 0.025,inactive: 0.042
ALKBH5 (UniProt Q6P6C2),inactive: 0.176,active: -0.637,inactive: -0.126,inactive: 0.139,inactive: 0.056,inactive: -0.067,inactive: 0.015,inactive: -0.032,inactive: -0.087,inactive: 0.113
ALG14 (UniProt Q96F25),inactive: 0.111,inactive: 0.018,inactive: -0.128,inactive: -0.085,inactive: 0.084,inactive: 0.088,inactive: 0.053,inactive: 0.002,inactive: -0.061,inactive: 0.014
ADSL (UniProt P30566),inactive: -0.028,inactive: -0.007,inactive: 0.06,inactive: 0.018,inactive: -0.002,inactive: 0.029,inactive: 0.007,inactive: -0.003,inactive: -0.013,inactive: 0.031
ALDOA isoform 2 (UniProt P04075),inactive: -0.009,inactive: 0.004,inactive: 0.031,inactive: -0.002,inactive: -0.061,inactive: -0.012,inactive: 0.008,inactive: 0,inactive: 0.019,inactive: 0.049
ALDH1L2 (UniProt Q3SY69),inactive: 0.031,inactive: 0.089,inactive: -0.025,inactive: -0.015,inactive: 0.033,inactive: 0.149,inactive: -0.104,inactive: -0.033,inactive: -0.089,inactive: 0
AK3 (UniProt Q9UIJ7),inactive: -0.01,inactive: 0.007,inactive: 0.028,inactive: -0.017,inactive: 0.019,inactive: 0,inactive: -0.013,inactive: -0.007,inactive: 0.013,inactive: 0.01
ALDOC (UniProt P09972),inactive: 0.011,inactive: -0.022,inactive: 0.012,inactive: -0.03,inactive: 0.023,inactive: -0.017,inactive: -0.02,inactive: -0.014,inactive: -0.022,inactive: 0.044
ALG1 (UniProt Q9BT22),inactive: 0.082,inactive: 0.05,inactive: 0.095,inactive: -0.003,inactive: 0.049,inactive: -0.002,inactive: -0.014,inactive: 0.022,inactive: -0.005,inactive: 0.019
AGL (UniProt P35573),inactive: 0.004,inactive: -0.019,inactive: -0.296,inactive: 0.025,inactive: -0.031,inactive: 0.012,inactive: -0.098,inactive: 0.063,inactive: -0.038,inactive: -0.118
ADH5 (UniProt P11766),inactive: -0.012,inactive: 0.034,inactive: 0.05,inactive: -0.016,inactive: 0.001,inactive: 0.007,inactive: -0.039,inactive: 0.002,inactive: 0.004,inactive: 0.037
ALDH1B1 (UniProt P30837),inactive: 0,inactive: 0.073,inactive: 0.066,inactive: 0.081,inactive: 0.062,inactive: -0.009,inactive: 0.044,inactive: 0.065,inactive: -0.028,inactive: 0.043
AIP (UniProt O00170),inactive: 0.035,inactive: 0.096,inactive: 0.133,inactive: -0.006,inactive: 0.042,inactive: 0.048,inactive: -0.01,inactive: 0.011,inactive: 0.005,inactive: -0.026
AMFR (UniProt Q9UKV5),inactive: 0.116,inactive: 0,inactive: -0.022,inactive: -0.062,inactive: -0.046,inactive: 0.058,inactive: 0.026,inactive: -0.062,inactive: 0.002,inactive: -0.009
AGPAT3 isoform 3 (UniProt Q9NRZ7),inactive: 0.009,inactive: -0.008,inactive: 0.028,inactive: -0.009,inactive: 0.028,inactive: 0.12,inactive: 0.04,inactive: 0.006,inactive: 0,inactive: 0.067
ALKBH4 (UniProt Q9NXW9),inactive: 0.067,inactive: 0.084,inactive: 0.018,inactive: 0.078,inactive: 0.106,inactive: -0.129,inactive: 0.032,inactive: -0.006,inactive: -0.074,inactive: 0.091
AKR1C3 (UniProt P42330),inactive: 0.063,inactive: 0.067,inactive: 0.117,inactive: -0.095,inactive: 0.02,inactive: 0.067,active: 0.796,inactive: -0.022,inactive: 0.031,inactive: 0.044
AHCY (UniProt P23526),inactive: -0.053,inactive: 0.018,inactive: 0.028,inactive: 0.027,inactive: -0.022,inactive: -0.008,inactive: 0.007,inactive: 0.005,inactive: -0.026,inactive: 0.059
ADI1 (UniProt Q9BV57),inactive: 0.026,inactive: -0.183,inactive: 0.019,inactive: 0.08,inactive: 0.057,inactive: 0.048,inactive: -0.031,inactive: 0.004,inactive: -0.057,inactive: -0.03
AKR7A2 (UniProt O43488),inactive: -0.032,inactive: 0.101,inactive: 0.108,inactive: -0.026,inactive: -0.059,inactive: 0,inactive: -0.006,inactive: 0.067,inactive: -0.044,inactive: 0.056
AFP (UniProt P02771),inactive: -0.364,inactive: -0.156,inactive: 0.162,inactive: 0.172,inactive: 0.221,inactive: -0.027,inactive: -0.001,inactive: -0.168,inactive: 0.297,inactive: 0.381
AGO1 (UniProt Q9UL18),inactive: 0.031,inactive: -0.061,inactive: 0.05,inactive: -0.091,inactive: 0.032,inactive: 0.005,inactive: 0.01,inactive: -0.08,inactive: -0.008,inactive: 0.046
AGAP3 isoform 4 (UniProt Q96P47),inactive: 0.11,inactive: 0,inactive: -0.078,inactive: -0.062,inactive: 0.017,inactive: 0.183,inactive: -0.024,inactive: -0.082,inactive: -0.075,inactive: 0.127
AK1 (UniProt P00568),inactive: -0.013,inactive: 0.038,inactive: 0.041,inactive: 0.025,inactive: 0.089,inactive: 0.052,inactive: -0.005,inactive: 0.012,inactive: 0.024,inactive: -0.023
AIFM1 (UniProt O95831),inactive: -0.004,inactive: -0.001,inactive: 0.023,inactive: -0.003,inactive: 0.003,inactive: 0.029,inactive: -0.029,inactive: -0.01,inactive: 0.01,inactive: 0.014
AK4 (UniProt P27144),inactive: 0.027,inactive: 0.014,inactive: 0.108,inactive: -0.005,inactive: 0.105,inactive: 0.02,inactive: 0.023,inactive: 0.006,inactive: -0.005,inactive: 0.029
ALDH9A1 (UniProt P49189),inactive: 0.131,inactive: 0.021,inactive: 0.035,inactive: -0.077,inactive: -0.023,inactive: 0.013,inactive: -0.103,inactive: 0.043,inactive: 0.035,inactive: 0.045

# Single records (already shown). Order of values: log2 fold change (erlotinib)	log2 fold change [1]	log2 fold change [2]	log2 fold change [3]	log2 fold change [4]	log2 fold change [5]	log2 fold change [6]	log2 fold change [7]	log2 fold change [8]	log2 fold change [9]
# ADI1 (UniProt Q9BV57) is listed as inactive: 0.026	inactive: -0.183	inactive: 0.019	inactive: 0.08	inactive: 0.057	inactive: 0.048	inactive: -0.031	inactive: 0.004	inactive: -0.057	inactive: -0.03
# AMFR (UniProt Q9UKV5) is listed as inactive: 0.116	inactive: 0	inactive: -0.022	inactive: -0.062	inactive: -0.046	inactive: 0.058	inactive: 0.026	inactive: -0.062	inactive: 0.002	inactive: -0.009
